Holding throughout (experiment): log2 fold change, soluble protein after heating vs DMSO (PISA); higher = thermal stabilisation; K562 lysate, 10 uM; active = over 0.2 and 3.5 SD of the protein, either way, in both replicates (recomputed)
Compound in experiment [1]: C1=CC=C(C=C1)[C@H](COC2=CC3=C(C=C2)NC(=O)N3)NC(=O)C4=CC=CN(C4=O)CC5=CC(=C(C=C5)F)F
The gist of the method:
(§1)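 Pellets of K562 cells were dounce-homogenised in PBS pH 7.4 with 1 mM MgCl2, and the crude extract was held at 1 mg/mL protein for a 30 min treatment with 10 μM compound. Aliquots were heated for 3 min over 48°C-58°C and pooled before NP-40 was added to 0.5% at 4°C. The supernatant from 21,000xg for 90 min was quantified by TMTpro 16plex LC-MS/MS with channel sums equalised. Values are reported from duplicates as log-two fold change in thermal stability relative to solvent controls.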

Chains of the proteins cited; added tags and fusions are not shown. Lines headed by an entry give the natural chain unless they say otherwise; changes in a name come on top.
UniProt O75164: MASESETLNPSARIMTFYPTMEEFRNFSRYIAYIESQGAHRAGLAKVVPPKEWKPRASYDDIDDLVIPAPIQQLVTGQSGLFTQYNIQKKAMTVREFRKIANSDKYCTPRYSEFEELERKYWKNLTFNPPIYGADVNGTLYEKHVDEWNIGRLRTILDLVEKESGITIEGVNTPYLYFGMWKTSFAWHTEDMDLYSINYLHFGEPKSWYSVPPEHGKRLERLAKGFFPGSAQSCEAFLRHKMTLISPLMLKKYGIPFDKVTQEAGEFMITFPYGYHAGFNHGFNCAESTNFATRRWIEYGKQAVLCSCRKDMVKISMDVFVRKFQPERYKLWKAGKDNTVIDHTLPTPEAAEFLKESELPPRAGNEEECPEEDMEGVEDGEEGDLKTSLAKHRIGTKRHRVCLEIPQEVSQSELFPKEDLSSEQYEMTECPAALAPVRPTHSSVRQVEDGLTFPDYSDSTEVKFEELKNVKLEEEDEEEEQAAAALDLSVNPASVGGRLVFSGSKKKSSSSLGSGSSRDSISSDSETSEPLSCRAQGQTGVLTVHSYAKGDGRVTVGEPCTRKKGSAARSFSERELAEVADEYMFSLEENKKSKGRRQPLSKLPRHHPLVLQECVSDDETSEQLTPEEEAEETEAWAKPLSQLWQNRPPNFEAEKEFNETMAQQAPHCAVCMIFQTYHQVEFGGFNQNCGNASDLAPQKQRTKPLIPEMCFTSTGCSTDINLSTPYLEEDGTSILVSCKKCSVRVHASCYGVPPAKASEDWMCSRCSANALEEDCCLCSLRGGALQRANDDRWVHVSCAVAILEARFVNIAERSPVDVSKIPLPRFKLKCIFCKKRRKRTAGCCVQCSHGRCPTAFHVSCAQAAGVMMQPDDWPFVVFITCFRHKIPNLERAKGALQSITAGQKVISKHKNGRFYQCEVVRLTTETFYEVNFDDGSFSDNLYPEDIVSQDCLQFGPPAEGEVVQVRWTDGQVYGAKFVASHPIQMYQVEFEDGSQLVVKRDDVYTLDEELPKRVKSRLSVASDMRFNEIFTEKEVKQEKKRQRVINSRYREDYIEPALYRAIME
UniProt Q03164, whole entry, looked up: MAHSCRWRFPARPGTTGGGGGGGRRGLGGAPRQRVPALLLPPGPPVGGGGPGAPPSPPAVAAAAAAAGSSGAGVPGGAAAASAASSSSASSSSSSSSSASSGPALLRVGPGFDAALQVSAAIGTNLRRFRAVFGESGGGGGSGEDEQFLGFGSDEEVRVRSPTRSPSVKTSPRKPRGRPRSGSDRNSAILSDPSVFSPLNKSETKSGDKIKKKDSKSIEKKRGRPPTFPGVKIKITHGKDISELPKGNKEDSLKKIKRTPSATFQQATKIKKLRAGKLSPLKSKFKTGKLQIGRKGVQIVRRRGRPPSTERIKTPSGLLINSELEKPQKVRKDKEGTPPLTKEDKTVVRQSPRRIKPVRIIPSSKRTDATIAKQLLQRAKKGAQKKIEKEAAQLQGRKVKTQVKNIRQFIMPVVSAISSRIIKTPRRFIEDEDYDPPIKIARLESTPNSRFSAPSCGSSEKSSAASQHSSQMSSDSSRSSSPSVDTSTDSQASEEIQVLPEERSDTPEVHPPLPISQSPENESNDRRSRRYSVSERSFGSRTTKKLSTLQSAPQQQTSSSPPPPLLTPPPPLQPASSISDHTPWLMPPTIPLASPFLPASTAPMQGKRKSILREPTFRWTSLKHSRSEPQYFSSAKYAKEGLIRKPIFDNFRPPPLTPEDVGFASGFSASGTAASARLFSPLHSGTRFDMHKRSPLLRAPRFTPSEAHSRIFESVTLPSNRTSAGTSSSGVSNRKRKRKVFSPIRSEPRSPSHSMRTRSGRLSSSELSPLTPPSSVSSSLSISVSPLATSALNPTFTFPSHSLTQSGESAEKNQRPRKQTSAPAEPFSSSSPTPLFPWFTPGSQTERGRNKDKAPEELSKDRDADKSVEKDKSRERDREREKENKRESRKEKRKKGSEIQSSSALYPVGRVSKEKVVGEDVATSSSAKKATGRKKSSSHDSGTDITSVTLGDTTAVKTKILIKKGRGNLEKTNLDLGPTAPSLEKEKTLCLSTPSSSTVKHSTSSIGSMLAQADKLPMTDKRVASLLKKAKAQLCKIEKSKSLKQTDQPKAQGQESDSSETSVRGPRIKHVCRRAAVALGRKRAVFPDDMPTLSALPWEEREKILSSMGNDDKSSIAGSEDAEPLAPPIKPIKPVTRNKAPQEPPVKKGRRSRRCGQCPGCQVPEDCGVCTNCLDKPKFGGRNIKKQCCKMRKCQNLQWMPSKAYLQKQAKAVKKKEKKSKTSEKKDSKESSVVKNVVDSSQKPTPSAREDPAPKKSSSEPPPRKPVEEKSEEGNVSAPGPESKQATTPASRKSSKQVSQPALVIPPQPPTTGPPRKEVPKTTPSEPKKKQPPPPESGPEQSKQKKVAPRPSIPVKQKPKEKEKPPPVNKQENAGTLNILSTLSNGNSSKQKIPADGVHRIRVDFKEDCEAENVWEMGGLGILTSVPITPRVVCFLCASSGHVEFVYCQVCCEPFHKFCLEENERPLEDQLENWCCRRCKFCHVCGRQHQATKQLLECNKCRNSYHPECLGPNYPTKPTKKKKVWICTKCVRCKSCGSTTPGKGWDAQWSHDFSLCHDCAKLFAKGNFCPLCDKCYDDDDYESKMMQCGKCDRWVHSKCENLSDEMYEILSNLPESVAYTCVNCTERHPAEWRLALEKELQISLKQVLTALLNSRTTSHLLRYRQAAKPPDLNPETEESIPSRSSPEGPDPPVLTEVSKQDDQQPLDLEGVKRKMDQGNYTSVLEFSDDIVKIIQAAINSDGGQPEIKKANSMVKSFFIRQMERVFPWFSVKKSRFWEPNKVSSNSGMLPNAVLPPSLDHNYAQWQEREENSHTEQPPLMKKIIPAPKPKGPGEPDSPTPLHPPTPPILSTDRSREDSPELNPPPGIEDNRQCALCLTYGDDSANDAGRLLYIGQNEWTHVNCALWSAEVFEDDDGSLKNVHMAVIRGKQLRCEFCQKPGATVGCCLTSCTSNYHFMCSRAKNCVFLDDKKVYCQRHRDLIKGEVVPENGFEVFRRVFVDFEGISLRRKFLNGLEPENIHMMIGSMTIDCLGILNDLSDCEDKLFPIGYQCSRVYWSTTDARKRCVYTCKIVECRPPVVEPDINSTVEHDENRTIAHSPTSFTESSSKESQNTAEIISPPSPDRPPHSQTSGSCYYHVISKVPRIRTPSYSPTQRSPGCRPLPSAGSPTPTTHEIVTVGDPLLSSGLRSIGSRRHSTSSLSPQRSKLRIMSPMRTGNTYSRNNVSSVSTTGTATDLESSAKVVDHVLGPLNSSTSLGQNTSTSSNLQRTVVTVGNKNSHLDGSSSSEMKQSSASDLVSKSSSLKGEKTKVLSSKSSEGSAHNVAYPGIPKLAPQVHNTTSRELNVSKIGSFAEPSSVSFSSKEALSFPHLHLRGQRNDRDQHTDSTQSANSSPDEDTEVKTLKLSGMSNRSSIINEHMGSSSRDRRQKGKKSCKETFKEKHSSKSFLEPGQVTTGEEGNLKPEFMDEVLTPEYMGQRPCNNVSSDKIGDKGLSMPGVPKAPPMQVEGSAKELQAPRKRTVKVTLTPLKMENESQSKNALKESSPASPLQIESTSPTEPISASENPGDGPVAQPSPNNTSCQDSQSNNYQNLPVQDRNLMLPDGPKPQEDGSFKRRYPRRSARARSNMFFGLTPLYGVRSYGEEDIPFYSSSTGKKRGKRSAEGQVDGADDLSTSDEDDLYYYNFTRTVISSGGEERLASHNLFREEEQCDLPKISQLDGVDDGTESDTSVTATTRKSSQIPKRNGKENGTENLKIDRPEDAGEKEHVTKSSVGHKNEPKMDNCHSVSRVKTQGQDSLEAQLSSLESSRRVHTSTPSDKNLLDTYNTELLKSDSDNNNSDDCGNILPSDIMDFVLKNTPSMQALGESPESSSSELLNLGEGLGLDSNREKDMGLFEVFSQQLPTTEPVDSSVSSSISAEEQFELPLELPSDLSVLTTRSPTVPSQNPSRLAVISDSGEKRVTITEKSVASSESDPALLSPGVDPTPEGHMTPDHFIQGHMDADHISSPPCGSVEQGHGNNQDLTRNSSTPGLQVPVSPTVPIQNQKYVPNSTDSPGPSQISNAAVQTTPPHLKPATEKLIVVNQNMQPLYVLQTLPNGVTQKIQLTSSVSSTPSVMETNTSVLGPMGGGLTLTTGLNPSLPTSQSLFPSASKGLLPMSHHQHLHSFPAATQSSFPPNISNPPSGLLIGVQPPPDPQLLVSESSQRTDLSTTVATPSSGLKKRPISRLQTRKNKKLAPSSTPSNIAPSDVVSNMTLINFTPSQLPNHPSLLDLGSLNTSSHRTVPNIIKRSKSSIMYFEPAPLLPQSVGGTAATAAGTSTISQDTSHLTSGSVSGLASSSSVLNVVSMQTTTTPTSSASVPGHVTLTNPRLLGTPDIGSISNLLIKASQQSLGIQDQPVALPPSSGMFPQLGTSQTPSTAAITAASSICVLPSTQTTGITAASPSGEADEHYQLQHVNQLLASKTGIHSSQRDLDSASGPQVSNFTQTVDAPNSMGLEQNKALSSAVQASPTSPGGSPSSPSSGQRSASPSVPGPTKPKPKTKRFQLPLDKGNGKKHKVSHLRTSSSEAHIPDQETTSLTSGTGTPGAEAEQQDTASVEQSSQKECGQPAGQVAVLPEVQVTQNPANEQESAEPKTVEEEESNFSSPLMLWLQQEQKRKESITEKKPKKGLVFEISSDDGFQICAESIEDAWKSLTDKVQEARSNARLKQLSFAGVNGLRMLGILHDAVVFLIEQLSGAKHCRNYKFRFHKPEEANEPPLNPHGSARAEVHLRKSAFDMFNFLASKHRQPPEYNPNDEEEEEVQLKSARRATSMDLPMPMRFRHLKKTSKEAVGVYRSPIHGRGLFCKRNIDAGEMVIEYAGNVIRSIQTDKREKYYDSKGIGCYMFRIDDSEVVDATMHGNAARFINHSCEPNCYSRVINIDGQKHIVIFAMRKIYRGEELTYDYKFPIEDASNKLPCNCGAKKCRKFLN
UniProt Q8IVT5: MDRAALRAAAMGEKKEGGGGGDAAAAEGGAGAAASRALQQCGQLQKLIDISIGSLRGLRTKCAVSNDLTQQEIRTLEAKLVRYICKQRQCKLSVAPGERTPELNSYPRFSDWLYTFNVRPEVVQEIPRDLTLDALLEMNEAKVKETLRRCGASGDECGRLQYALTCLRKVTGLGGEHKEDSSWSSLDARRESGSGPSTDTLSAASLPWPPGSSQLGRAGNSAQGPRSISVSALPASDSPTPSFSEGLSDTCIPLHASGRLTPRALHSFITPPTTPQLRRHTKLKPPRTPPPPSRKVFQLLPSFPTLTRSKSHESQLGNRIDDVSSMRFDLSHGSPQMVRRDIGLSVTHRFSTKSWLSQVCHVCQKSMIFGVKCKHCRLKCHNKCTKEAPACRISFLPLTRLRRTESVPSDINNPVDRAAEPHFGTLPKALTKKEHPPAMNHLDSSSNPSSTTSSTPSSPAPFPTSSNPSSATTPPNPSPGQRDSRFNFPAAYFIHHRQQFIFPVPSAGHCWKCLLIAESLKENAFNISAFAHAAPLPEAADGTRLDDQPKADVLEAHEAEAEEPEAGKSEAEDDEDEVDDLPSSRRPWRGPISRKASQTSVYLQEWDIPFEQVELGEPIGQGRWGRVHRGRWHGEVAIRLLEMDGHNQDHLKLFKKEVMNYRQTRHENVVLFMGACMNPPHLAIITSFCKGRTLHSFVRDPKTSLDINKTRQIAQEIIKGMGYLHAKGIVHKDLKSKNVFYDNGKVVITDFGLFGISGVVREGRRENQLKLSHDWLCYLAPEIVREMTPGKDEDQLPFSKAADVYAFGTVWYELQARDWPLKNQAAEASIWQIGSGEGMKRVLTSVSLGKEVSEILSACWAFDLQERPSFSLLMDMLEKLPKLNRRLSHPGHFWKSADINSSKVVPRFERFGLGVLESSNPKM
UniProt Q9P2K6: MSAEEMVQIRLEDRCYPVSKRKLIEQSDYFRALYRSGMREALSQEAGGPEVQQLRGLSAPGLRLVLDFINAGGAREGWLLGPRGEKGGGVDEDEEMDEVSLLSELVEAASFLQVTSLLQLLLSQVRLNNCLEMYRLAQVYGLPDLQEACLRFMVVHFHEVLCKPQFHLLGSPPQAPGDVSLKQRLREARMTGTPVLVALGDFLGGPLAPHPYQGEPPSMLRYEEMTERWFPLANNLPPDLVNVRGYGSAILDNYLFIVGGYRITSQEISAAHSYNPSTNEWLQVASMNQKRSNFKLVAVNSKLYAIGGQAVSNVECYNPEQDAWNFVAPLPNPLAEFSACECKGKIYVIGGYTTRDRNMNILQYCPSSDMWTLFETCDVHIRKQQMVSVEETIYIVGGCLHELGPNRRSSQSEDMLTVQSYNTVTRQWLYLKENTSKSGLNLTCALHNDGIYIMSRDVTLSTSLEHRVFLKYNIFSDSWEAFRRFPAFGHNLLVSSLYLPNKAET

Compound in experiment [2]: CC1=C(SC2=C1C(=N[C@H](C3=NN=C(N32)C)CC(=O)N)C4=CC=C(C=C4)Cl)C
The gist of the method: as §1

Compound in experiment [3]: CC1=C2C(=CC=C1)N=C(N(C2=O)C3=CC=CC=C3C)CN4C=NC5=C(N=CN=C54)N
Summed up:
as §1

Compound in experiment [4]: Cc1sc2c(c1C)C(c1ccc(Cl)cc1)=N[C@@H](CC(=O)OC(C)(C)C)c1nnc(C)n1-2
The gist of the method:
as §1

Compound in experiment [5]: c1ccc([C@@H]2C[C@H]2NC2CCNCC2)cc1
The gist of the method: as §1

The other results are listed elsewhere or left out.

For KDM4A (UniProt O75164), the log2 fold change in experiment [1] was inactive: 0.043; in experiment [2], inactive: -0.05; in experiment [3], inactive: 0.093; in experiment [4], inactive: -0.027; in experiment [5], inactive: -0.074.
For KMT2A isoform 3 (UniProt Q03164), the log2 fold change was inactive: 0.043 in experiment [1]; inactive: 0.09 in experiment [2]; inactive: -0.009 in experiment [3]; inactive: -0.025 in experiment [4]; inactive: 0.016 in experiment [5].
Take KLHL18 (UniProt O94889): the log2 fold change in experiment [1] was inactive: 0.019; in experiment [2], inactive: -0.016; in experiment [3], inactive: 0.051; in experiment [4] it was inactive: -0.023; in experiment [5], inactive: -0.034.
As to KSR1 (UniProt Q8IVT5), the log2 fold change in experiment [1] is inactive: -0.081; in experiment [2] it was inactive: -0.024; in experiment [3], inactive: 0.035; in experiment [4], inactive: 0.035; in experiment [5] it was active: 0.242.
Consider KIAA1324L (UniProt A8MWY0), for which the log2 fold change in experiment [1] was inactive: 0.052; in experiment [2], inactive: -0.021; in experiment [3] it was inactive: -0.089; in experiment [4], inactive: -0.054; in experiment [5] it was inactive: -0.066.
Regarding KHDC4 (UniProt Q7Z7F0), the log2 fold change in experiment [1] was inactive: -0.026; in experiment [2] it was inactive: 0.011; in experiment [3], inactive: -0.027; in experiment [4] it was inactive: 0.007; in experiment [5], inactive: -0.042.
On the same counts, the results for KYAT3 (UniProt Q6YP21) are inactive: 0.015, inactive: -0.015, inactive: 0.005, inactive: -0.026 and inactive: -0.074.
As for LAMTOR5 (UniProt O43504), the log2 fold change is inactive: 0.002 in experiment [1]; inactive: -0.107 in experiment [2]; inactive: 0.008 in experiment [3]; inactive: -0.032 in experiment [4]; inactive: 0.107 in experiment [5].
With KLHDC8B (UniProt Q8IXV7), the log2 fold change in experiment [4] was inactive: -0.069.
On to KLHL42 (UniProt Q9P2K6), for which the log2 fold change was inactive: -0.022 in experiment [1], inactive: -0.069 in experiment [2], inactive: -0.021 in experiment [4] and inactive: -0.049 in experiment [5].
Take KLHL26 (UniProt Q53HC5): the log2 fold change in experiment [4] was inactive: -0.108; in experiment [5], inactive: -0.069.
With KIF16B isoform 2 (UniProt Q96L93), the log2 fold change in experiment [3] was inactive: -0.032; in experiment [4] it was inactive: -0.105; in experiment [5] it was inactive: -0.013.
